Results are given in words; binding and its absence hold for the method and conditions named. Some results given as binding are weak or reduced against the parent protein; the word gives no strength.
Target: T1, human SorCS1-a (overlapping peptides of the entire primary sequence on a SPOT membrane) (human) (UniProt Q8WY21)
T1 sequence: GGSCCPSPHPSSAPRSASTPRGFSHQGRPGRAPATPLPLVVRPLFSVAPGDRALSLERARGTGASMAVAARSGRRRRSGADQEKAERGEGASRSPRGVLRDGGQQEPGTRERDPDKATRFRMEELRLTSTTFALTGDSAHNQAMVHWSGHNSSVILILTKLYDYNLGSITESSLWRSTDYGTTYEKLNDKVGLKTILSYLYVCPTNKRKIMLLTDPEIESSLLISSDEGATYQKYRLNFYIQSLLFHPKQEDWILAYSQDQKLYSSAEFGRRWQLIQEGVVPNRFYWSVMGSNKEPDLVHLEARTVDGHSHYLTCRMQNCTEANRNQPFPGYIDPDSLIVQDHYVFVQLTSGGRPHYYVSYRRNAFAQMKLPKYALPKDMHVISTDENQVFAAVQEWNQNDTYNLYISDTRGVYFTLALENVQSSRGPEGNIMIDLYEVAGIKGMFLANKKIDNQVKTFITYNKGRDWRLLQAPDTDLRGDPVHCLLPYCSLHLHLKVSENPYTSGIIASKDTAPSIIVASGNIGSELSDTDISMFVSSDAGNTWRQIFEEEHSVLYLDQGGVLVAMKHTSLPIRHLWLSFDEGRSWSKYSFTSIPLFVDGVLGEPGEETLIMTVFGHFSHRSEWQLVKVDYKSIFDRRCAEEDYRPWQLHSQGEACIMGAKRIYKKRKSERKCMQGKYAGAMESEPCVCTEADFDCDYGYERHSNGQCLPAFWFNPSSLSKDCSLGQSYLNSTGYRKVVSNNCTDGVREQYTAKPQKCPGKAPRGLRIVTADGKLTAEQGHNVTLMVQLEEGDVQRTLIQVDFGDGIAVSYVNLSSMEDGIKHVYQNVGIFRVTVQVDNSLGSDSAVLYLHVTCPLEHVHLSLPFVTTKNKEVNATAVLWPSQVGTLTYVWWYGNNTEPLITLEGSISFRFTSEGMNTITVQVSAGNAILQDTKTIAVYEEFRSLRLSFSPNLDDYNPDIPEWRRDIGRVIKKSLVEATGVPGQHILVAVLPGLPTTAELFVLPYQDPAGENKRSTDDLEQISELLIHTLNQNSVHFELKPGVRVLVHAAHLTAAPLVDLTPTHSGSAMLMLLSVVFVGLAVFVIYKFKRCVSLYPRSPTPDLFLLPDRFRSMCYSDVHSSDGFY
Assay: SPOT peptide array of SorCS1-a probed with his-tagged IR

The chains behind the UniProt entries cited, without tags or fusion partners. Where a name states a change or a piece, a line headed by the entry shows the natural chain unless it says otherwise. A line that says so, or that is headed by a name, gives the form on record, which may keep a tag or linker.
histidine-tagged insulin receptor (R&D systems, no1544-IR/CF) (P06213, form named): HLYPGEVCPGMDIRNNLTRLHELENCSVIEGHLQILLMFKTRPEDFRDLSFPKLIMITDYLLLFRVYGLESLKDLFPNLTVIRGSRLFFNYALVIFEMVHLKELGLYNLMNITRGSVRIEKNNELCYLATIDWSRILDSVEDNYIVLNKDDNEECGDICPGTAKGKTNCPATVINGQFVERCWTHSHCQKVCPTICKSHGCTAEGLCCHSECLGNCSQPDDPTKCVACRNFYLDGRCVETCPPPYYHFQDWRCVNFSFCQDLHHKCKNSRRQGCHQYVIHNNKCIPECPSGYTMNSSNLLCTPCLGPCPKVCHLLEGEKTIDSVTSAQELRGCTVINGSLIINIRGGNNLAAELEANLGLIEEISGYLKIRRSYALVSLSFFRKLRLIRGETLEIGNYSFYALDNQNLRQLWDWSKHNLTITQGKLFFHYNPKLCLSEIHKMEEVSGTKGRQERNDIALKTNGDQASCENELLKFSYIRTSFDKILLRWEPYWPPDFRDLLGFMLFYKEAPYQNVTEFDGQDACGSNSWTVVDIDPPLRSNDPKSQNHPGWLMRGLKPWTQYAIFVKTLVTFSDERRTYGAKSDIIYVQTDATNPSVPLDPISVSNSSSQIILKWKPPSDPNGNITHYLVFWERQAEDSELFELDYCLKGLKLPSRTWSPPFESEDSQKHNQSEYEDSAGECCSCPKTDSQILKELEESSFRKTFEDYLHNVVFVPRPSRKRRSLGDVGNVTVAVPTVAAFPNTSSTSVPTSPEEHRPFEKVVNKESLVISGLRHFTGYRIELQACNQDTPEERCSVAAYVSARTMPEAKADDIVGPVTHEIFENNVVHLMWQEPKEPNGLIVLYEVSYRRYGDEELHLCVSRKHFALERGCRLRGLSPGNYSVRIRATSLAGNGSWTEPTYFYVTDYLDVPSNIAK

binding: binds
Substance: histidine-tagged insulin receptor (R&D systems, no1544-IR/CF) (from UniProt P06213 28-944)

From patent US20120207721A1
